The results in this text go back to PMC4840434, “The interactome of Streptococcus pneumoniae and its bacteriophages show highly specific patterns of interactions among bacteria and their phages” (Scientific Reports, 2016).

This assay concerns the target T1, Cp-1 Cpl1, Lysozyme (phage Cp-1 of S. pneumoniae) (UniProt P15057).
T1 sequence: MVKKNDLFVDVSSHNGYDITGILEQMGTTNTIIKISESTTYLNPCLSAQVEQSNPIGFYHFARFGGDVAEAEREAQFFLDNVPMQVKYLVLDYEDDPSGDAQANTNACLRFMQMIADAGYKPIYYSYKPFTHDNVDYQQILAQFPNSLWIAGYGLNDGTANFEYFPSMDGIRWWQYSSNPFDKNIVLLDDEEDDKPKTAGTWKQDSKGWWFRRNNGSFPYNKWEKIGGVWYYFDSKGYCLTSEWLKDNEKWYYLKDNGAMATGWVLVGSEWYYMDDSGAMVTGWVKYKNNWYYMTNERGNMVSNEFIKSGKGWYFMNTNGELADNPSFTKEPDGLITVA
The assay can be described thus: two-hybrid; yeast two-hybrid array screen: Cp-1 and Dp-1 baits in pDEST32 against 1,704 S. pneumoniae TIGR4 ORF preys in pDEST22; strength by 3-AT up to 50 mM (3AT score = 3ATmax - 3ATbackground).

No constants are given. Whether binding was seen depends on the method and setting. Some results given as binding are weak or reduced against the parent protein; the word gives no strength.

B1: SP_1208, uridine kinase (LuMPIS construct) (natural protein, S. pneumoniae TIGR4, UniProt P67413 1-212, looked up)
chain: MQNRPIIIGVTGGSGGGKTSVSRAILSHFPDEKISMIEHDSYYKDQSHLTFEERVKTNYDHPFAFDTDLMIEQIKELLAGRPVDIPTYDYTEHTRSSKTYRQEPQDVFIVEGILVLEDKRLRDLMDIKIFVDTDDDVRIIRRIKRDMEERGRSLDSVINQYLGVVKPMYHQFIESTKRYADIVIPEGVSNTVAIDLLTTKIAKILEEARNSK
notes: SP_1208 uridine kinase, S. pneumoniae TIGR4; ORF in a Gateway LuMPIS vector; source: HEK cells, raw protein extract
As to B1, the binding entry is recorded as “binds”.
